Laboratory results: publication PMC12040169 (PLOS Biology, 2025)
The list shows a part of the results.

What follows are molecules tested on T1, CTL2-GFP (C. trachomatis L2/434/Bu, GFP-expressing). Conditions: bulk GFP, single well; 28.5 h, 10 µM; inhibitor.
T1 construct: L2/434/Bu, GFP-expressing
Set-up: species or system HeLa; Intracellular C. trachomatis growth in HeLa cells, bulk GFP fluorescence relative to DMSO
For `CCOC(=O)/C(=N/O)C(=O)c1c[nH]c2ccccc12` [CBK260979], the “% of control remaining” value was 116.974%.
`Cc1cc(C(F)(F)F)nn1CCC(=O)Nc1cnn(C)c1C(=O)O` [CBK286817] was tested, and the “% of control remaining” value was 111.605%.
In the case of `CC1CCc2c(sc3ncnc(SCC(=O)N(C)CCC#N)c23)C1` (centres unmarked) [CBK305896], the “% of control remaining” value is reported as 118.527%.
For `c1csc(-c2cncc(NCc3ccncc3)n2)c1` [CBK065583], the “% of control remaining” value was 171.584%.
With `O=C(c1ccoc1)N1CCC2(CCCN(CCCn3c(=O)[nH]c4ccccc43)C2)C1` (centres unmarked) [CBK132818] the “% of control remaining” value was 142.826%.
In the case of `CCOc1ccccc1NC(=O)CN(c1cc(C(F)(F)F)ccc1Cl)S(C)(=O)=O` [CBK264627], the “% of control remaining” value is reported as 111.115%.
For `CCOC(=O)c1c(-c2ccc(C)o2)csc1NC(=O)CN1CCCCC1C` (centres unmarked) [CBK265917], the “% of control remaining” value was 163.994%.
For `CSCCC(Nc1ncnc2c1c(C)c(C)n2Cc1ccco1)C(=O)O` (centres unmarked) [CBK307568], the “% of control remaining” value was 164.302%.
For `COc1ccc2c(c1)c(C(=O)N1CCC3(CCNCC3)CC1)c(C)n2C` [CBK306562], the “% of control remaining” value was 163.885%.
For `O=C(Cc1cccs1)N1CCC(O)(c2ccccn2)CC1` [CBK283587], the “% of control remaining” value was 142.927%.
With `COC(=O)C1=C(C)N(c2cccc(C(F)(F)F)c2)C(=O)/C1=C\c1ccc(C(=O)O)cc1` [CBK265129] the “% of control remaining” value was 130.672%.
`CN1C2CCC1CC(OC(=O)CNC1CCCCC1)C2` (centres unmarked) [CBK278161C] was tested, and the “% of control remaining” value was 137.808%.
For `Cn1nc(-c2ccc(S(=O)(=O)Nc3nc(=O)[nH]cc3F)s2)cc1C(F)(F)F` [CBK067574], the “% of control remaining” value was 117.548%.
`CCc1nc(CN(C(C)=O)C2CCN(CCc3ccccn3)C2)no1` (centres unmarked) [CBK305372] was tested, and the “% of control remaining” value was 80.4847%.
For `COc1ccc(Cl)cc1NC(=S)NNC(=O)c1cc(C)nc2ccccc12` [CBK266920], the “% of control remaining” value was 145.127%.
For `Cc1sc2nc(SCCCN3C(=O)c4cccc5cccc(c45)C3=O)nc(N)c2c1C` [CBK264424], the “% of control remaining” value was 100%.
`CC(NC(=O)CCc1nc2ccccc2n1C)c1ccccn1` (centres unmarked) [CBK281823] was tested, and the “% of control remaining” value was 118.367%.
For `CSCCN1CCC2(CC1)CN(C(=O)C(C)C)c1ccccc12` [CBK131473], the “% of control remaining” value was 126.229%.
For `CC[C@H]1CN(C(=O)C2CC2)CC[C@H]1CC(=O)N(C)CC#N` [CBK289132], the “% of control remaining” value was 156.456%.
For `O=C(NCCN1CCOCC1)NC(=O)c1ccc(Cl)cc1` [CBK269446], the “% of control remaining” value was 124.334%.
In the case of `NC(=O)C1(N2CCCCC2)CCN(C(=S)NC2CCCC2)CC1` [CBK091884], the “% of control remaining” value is reported as 156.313%.
For `CC(C)C(N)c1nnc(SCc2ccccc2Cl)o1` (centres unmarked) [CBK270121C], the “% of control remaining” value was 132.866%.
With `CN(C)CCNC(=O)C1CCCN(c2nc3c(-c4ccccc4)csc3c(=O)[nH]2)C1` (centres unmarked) [CBK215501] the “% of control remaining” value was 164.093%.
In the case of `O=S(=O)(c1ccc2ccccc2c1)N1CCCCC1CO` (centres unmarked) [CBK200055], the “% of control remaining” value is reported as 85.0121%.
`O=C(CC1CC1)N1CCC2(CCN(Cc3ccccc3)C2)C1` (centres unmarked) [CBK136825] was tested, and the “% of control remaining” value was 139.082%.
In the case of `Cn1c(=O)[nH]c2c(nc(-c3ccccc3)n2C)c1=O` [CBK287855], the “% of control remaining” value is reported as 139.643%.
In the case of `O=C1c2ccccc2C2(c3ccccc3)NCCN12` (centres unmarked) [CBK067098], the “% of control remaining” value is reported as 142.296%.
With `Cc1ccc(S(=O)(=O)N(CC(=O)NCC2CCCO2)c2ccccc2)cc1` (centres unmarked) [CBK264140] the “% of control remaining” value was 134.963%.
With `O=C(CC1CCN(CCc2ccccc2)CC1)Nc1cccc(-n2cccn2)c1` [CBK285951] the “% of control remaining” value was 13.6626%.
In the case of `COc1ccc(Oc2c(-c3ccc(O)cc3O)n[nH]c2C)cc1` [CBK288239], the “% of control remaining” value is reported as 103.239%.
For `CCCn1ncc(C(=O)NC(C)c2c(C)nn(CC)c2C)c1C` (centres unmarked) [CBK281532], the “% of control remaining” value was 130.735%.
With `COc1ccccc1Nc1nc(C)cc(C)c1C(N)=O` [CBK287960] the “% of control remaining” value was 156.097%.
For `COc1cccc(/C=N/c2cc(S(=O)(=O)c3ccc(O)c(/N=C/c4cccc(OC)c4O)c3)ccc2O)c1O` [CBK261225], the “% of control remaining” value was 110.003%.
`COc1cc(/C=N/NC(=O)Cc2nnc(N)s2)cc(OC)c1OC` [CBK262027] was tested, and the “% of control remaining” value was 100.912%.
With `CCn1ncc2c1CCCC2NC1CCN(c2ccc(C#N)cc2)C1=O` (centres unmarked) [CBK305200] the “% of control remaining” value was 108.408%.
With `O=C(OCC#CCSc1nnc(-c2ccncc2)o1)c1sc2ccccc2c1Cl` [CBK265677] the “% of control remaining” value was 115.653%.
For `CCCc1[nH]nc(O)c1CCc1ccc(OC)cc1` [CBK081128], the “% of control remaining” value was 121.53%.
In the case of `CC(=O)Nc1ccc(C(=O)NC(c2cccs2)C2CCCC2)cc1` (centres unmarked) [CBK297777], the “% of control remaining” value is reported as 180.283%.
With `Cc1ccc2nc(-c3ccc(N4C(=O)CC(N5CCC(N6CCCCC6)CC5)C4=O)cc3)sc2c1` (centres unmarked) [CBK265315] the “% of control remaining” value was 105.799%.
`COc1ccc(OCC(=O)Nc2nonc2-c2ccccc2)cc1` [CBK287798] was tested, and the “% of control remaining” value was 114.166%.
In the case of `COc1cccn(CC(=O)N2CCc3sc(C(=O)N(C)C)cc3C2)c1=O` [CBK307665], the “% of control remaining” value is reported as 117.616%.
In the case of `Cc1c(C(=O)C2=C(O)C(=O)N(Cc3cccnc3)C2c2cccnc2)cnn1-c1ccccc1` (centres unmarked) [CBK266543], the “% of control remaining” value is reported as 136.685%.
For `Cc1noc(C)c1NC(=O)c1ccc2ncccc2c1` [CBK200308], the “% of control remaining” value was 122.266%.
For `O=c1[nH]c(=O)c2cc(S(=O)(=O)Nc3cccc(-c4ccc(F)cc4)c3)ccc2[nH]1` [CBK286394], the “% of control remaining” value was 144.119%.
In the case of `Nc1nnc(Cn2c(-c3nonc3N)nc3ccccc32)s1` [CBK263854], the “% of control remaining” value is reported as 107.538%.
`O=S(=O)(NN1CCOCC1)c1cc(Cl)cc(Cl)c1O` [CBK269279] was tested, and the “% of control remaining” value was 154.18%.
With `CN1CCN(c2cc(N3CCN(S(=O)(=O)c4ccc5ccccc5c4)CC3)ccc2[N+](=O)[O-])CC1` [CBK264791] the “% of control remaining” value was 117.505%.
With `O=C(NCc1ccc(OC2CCNCC2)cc1)c1coc2c1C(=O)CCC2` [CBK038944T] the “% of control remaining” value was 120.429%.
For `O=C(CCn1ncc2ccccc21)N1CCC(c2ccncc2)CC1` [CBK282395], the “% of control remaining” value was 118.34%.
With `Cc1nn(Cc2cccc(Oc3ccccc3)c2)c(C)c1NC(=O)c1nc2ncccn2n1` [CBK267632] the “% of control remaining” value was 113.655%.
